Results from ChEMBL document CHEMBL1145461, “Imidazolylmethylbenzophenones as highly potent aromatase inhibitors” (J Med Chem, 2007).

Target: T1, Aromatase (Homo sapiens, UniProt P11511)
T1 sequence (P11511 whole entry): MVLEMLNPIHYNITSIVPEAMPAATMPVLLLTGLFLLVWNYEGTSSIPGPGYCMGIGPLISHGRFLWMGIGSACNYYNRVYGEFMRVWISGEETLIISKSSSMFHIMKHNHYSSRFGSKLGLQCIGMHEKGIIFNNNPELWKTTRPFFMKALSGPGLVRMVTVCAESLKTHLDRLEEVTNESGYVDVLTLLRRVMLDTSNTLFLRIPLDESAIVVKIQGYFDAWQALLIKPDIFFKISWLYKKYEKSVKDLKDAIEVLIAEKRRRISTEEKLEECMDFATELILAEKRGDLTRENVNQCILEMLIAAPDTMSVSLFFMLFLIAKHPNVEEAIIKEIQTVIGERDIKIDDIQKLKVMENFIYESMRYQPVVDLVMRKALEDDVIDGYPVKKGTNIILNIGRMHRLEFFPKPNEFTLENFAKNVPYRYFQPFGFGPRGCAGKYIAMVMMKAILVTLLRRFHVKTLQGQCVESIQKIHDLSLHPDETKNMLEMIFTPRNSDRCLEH
Experiment: Inhibition of CYP19 in human placental microsomes
Parameters: species or system Placenta

With O=C(c1ccccc1)c1ccc(Cn2ccnc2)cc1 the IC50 was 252 nM.
